The nature of the data set: peptide made by a vendor. The settings on record: conjugation step, reverse phase HPLC.

“Des-Amino-Histidyl Exendin-4(Lys27)-Immunoglobulin Fc Conjugate”: the “final HPLC purity” value is 95.8%.

With “Des-Amino-Histidyl-GLP-1 (Lys27)-Immunoglobulin Fc Conjugate”, the “final HPLC purity” value was determined as 91.9%.

The record behind these values is US20090238838 (published 2009).
